Data: the supplement of paper PMC12819154, “High-throughput peptide-centric local stability assay extends protein–ligand identification to membrane proteins, tissues and bacteria” (Nature Structural & Molecular Biology, 2025)
The other results are listed elsewhere or left out. Most values lie at the level of the controls, where differences are scatter.

The chains behind the UniProt entries cited, without tags or fusion partners. Where a name states a change or a piece, a line headed by the entry shows the natural chain unless it says otherwise.
UniProt Q86Y79: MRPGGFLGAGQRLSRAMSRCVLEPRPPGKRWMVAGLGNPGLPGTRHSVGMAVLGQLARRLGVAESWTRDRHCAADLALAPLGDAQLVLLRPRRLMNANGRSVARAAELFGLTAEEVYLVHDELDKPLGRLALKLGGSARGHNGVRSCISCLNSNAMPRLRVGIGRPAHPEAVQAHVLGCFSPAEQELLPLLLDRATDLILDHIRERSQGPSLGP
UniProt Q8IUD2: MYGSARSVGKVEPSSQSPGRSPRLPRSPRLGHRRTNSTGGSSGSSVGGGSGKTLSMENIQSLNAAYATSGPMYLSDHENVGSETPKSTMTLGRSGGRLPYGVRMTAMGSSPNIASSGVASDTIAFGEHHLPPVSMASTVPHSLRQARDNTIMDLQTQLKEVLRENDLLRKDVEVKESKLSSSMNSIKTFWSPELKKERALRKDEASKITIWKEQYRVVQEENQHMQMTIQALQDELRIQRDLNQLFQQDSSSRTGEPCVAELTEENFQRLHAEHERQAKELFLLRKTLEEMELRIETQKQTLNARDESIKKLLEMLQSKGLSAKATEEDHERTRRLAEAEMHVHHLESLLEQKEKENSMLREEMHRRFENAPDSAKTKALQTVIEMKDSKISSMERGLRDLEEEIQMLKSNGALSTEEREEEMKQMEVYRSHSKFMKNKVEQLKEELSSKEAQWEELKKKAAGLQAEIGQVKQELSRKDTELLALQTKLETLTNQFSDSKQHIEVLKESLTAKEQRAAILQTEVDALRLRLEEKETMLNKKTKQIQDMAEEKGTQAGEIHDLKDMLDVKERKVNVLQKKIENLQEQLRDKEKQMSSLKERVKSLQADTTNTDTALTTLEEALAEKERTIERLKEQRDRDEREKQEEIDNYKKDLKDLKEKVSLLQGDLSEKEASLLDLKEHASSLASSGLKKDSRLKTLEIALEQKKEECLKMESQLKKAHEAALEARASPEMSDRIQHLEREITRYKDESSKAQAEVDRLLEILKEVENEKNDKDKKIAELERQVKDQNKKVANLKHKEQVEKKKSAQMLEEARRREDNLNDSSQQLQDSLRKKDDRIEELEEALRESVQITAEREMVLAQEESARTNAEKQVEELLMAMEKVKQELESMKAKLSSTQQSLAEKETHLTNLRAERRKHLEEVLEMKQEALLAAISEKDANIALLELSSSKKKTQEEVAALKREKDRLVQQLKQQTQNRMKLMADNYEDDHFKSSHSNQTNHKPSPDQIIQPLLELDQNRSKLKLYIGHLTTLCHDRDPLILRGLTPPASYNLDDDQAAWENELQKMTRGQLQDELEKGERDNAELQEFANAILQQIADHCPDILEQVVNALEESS
UniProt Q8IVW6: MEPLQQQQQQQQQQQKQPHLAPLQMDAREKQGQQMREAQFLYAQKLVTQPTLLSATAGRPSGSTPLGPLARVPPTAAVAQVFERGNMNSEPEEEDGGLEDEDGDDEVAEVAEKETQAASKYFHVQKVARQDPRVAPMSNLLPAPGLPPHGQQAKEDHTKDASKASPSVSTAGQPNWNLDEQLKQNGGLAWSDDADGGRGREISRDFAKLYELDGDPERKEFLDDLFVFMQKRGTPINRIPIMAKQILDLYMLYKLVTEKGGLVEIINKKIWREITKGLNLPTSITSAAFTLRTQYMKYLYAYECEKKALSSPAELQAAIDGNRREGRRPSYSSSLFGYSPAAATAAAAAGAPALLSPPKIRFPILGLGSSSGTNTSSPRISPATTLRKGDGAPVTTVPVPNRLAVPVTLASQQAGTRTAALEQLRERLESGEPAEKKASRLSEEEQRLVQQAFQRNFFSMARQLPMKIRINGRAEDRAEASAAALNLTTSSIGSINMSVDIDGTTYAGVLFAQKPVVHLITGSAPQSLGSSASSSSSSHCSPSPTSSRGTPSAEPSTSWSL
UniProt Q8IY21: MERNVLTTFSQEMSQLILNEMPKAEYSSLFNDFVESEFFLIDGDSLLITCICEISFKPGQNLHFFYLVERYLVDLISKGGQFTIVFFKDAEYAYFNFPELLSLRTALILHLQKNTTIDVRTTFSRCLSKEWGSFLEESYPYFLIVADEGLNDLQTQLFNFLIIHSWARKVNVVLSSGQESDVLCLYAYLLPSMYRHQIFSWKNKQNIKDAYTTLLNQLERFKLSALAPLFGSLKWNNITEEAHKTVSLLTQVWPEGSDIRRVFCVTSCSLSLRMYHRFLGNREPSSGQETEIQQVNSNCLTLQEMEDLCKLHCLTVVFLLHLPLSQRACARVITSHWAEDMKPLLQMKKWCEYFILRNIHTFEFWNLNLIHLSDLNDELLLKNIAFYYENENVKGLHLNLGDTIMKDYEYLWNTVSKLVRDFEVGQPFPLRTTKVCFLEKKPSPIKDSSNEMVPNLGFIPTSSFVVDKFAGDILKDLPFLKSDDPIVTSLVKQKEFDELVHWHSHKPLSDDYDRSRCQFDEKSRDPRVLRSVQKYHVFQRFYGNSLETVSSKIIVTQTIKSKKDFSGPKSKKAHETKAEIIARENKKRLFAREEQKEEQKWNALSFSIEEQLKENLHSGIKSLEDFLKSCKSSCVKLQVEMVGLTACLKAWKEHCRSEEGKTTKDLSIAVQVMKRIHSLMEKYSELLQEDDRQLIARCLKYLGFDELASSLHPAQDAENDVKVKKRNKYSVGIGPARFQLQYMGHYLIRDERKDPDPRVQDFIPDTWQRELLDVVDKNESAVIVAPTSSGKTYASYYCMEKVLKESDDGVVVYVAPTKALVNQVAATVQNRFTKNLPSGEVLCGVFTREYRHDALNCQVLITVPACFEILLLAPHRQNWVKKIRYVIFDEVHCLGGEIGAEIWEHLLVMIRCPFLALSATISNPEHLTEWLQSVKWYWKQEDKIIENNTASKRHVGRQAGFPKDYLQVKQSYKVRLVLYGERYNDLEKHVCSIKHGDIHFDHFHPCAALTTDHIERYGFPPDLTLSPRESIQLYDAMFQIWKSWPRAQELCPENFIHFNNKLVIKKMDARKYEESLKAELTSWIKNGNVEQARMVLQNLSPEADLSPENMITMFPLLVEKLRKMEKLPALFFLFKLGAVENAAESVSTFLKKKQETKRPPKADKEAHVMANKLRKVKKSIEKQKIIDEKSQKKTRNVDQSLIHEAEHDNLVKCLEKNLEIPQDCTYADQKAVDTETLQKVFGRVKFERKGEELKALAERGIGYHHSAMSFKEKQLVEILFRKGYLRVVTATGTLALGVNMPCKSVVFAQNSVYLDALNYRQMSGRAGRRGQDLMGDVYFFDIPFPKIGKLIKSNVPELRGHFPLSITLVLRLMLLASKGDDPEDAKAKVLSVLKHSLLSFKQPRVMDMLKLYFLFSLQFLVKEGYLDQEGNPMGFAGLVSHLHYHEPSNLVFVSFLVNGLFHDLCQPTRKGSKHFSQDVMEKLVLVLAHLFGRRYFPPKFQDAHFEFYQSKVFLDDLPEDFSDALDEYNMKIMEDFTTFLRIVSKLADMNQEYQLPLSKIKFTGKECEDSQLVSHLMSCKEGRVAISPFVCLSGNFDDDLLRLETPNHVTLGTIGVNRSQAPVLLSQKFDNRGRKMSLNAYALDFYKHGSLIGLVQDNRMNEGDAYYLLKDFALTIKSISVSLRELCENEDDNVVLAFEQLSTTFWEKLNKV
UniProt Q8IVI9: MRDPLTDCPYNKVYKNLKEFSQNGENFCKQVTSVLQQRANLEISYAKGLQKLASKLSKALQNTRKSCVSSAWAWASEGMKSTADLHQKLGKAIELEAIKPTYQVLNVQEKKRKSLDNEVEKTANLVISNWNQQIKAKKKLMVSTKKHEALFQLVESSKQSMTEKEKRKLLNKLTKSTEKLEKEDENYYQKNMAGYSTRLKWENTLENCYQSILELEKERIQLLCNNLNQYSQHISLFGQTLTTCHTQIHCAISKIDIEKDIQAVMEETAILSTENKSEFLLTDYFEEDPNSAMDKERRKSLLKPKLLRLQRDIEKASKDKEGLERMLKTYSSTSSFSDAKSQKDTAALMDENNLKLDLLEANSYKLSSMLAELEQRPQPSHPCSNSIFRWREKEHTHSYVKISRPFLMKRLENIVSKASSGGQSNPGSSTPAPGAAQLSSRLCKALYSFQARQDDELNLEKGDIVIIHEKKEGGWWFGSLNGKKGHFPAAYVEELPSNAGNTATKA
UniProt Q8N137: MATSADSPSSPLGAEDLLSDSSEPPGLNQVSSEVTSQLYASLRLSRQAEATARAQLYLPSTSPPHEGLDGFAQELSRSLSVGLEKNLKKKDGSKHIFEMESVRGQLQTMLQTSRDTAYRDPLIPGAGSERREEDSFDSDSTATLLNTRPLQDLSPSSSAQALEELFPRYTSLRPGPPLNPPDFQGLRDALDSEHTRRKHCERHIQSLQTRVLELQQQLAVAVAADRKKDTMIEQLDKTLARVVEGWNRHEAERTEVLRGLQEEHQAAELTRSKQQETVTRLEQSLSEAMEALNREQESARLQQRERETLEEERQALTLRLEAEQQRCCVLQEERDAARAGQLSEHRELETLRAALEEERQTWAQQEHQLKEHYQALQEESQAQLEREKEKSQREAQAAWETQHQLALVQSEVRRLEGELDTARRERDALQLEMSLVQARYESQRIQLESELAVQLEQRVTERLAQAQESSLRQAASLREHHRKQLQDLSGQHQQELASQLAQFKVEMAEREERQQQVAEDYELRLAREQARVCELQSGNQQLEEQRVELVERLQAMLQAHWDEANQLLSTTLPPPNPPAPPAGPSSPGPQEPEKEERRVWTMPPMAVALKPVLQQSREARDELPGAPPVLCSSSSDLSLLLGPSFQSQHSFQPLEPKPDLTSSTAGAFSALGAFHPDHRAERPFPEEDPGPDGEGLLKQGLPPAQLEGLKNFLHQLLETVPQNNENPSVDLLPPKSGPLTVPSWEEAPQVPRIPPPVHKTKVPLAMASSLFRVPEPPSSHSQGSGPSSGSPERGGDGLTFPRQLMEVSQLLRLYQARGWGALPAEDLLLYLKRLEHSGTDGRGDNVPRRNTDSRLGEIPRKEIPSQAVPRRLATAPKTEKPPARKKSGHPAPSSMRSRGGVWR
UniProt Q86VP6: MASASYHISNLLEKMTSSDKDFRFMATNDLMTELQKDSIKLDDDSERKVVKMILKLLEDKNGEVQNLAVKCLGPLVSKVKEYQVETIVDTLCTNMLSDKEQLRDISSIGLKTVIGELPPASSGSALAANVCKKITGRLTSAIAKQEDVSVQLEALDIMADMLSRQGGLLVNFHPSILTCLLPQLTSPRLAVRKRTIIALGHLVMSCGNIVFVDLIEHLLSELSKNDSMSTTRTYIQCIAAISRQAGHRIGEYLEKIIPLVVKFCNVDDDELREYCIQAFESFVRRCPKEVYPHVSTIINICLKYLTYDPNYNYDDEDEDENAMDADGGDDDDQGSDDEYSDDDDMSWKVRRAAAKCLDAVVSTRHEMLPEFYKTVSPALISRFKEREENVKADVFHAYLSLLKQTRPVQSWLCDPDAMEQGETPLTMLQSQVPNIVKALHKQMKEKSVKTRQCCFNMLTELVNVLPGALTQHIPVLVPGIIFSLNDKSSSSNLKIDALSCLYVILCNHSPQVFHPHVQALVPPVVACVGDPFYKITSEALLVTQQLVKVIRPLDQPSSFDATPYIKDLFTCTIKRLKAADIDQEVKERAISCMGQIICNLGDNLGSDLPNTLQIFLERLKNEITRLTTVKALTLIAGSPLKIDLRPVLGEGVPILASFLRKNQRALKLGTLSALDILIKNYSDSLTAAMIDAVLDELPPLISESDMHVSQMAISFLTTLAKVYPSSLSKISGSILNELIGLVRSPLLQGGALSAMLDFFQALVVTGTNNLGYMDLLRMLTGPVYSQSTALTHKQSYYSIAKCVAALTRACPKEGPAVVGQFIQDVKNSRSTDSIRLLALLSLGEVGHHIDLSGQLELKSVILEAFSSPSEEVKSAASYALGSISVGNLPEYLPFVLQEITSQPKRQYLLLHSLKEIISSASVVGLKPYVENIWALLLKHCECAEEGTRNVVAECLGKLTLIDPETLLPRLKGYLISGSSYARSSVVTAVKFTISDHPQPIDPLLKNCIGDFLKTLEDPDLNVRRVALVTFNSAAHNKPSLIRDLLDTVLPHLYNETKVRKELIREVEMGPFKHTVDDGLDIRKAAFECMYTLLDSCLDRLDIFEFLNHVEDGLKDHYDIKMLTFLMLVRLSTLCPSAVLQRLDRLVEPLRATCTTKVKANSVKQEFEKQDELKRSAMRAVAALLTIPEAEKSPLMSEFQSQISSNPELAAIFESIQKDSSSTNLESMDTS
UniProt Q86WW8: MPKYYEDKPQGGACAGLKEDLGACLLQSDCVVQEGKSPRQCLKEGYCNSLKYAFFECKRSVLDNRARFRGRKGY
UniProt Q86WH2: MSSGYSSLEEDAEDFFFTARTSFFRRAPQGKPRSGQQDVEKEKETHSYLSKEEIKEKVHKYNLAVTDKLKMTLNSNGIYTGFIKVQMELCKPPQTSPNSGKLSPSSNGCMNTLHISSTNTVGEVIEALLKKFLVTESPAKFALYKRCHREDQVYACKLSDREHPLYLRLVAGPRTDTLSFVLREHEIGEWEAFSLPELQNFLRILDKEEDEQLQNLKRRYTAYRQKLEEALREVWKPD

Compound: Cc1nc(Nc2ncc(C(=O)Nc3c(C)cccc3Cl)s2)cc(N2CCN(CCO)CC2)n1 [dasatinib]
Assay: log2 fold change of tryptic peptide abundance, ligand vs vehicle (limited proteolysis) (log2 ratio); higher = more trypsin-susceptible (destabilized)
Settings: ligand concentration: 5 uM; sample: K562 cleared lysate

| Target | log2 fold change |
| --- | --- |
| VPS36 (peptide sequence: RWENMPVSQSLQTNR, peptide start residue: 130) (UniProt Q86VN1) | -0.181 |
| MICALL2 (peptide sequence: EQEEDQMLR, peptide start residue: 865) (UniProt Q8IY33) | -0.179 |
| PTRH1 (peptide sequence: HSVGMAVLGQLAR, peptide start residue: 46) (UniProt Q86Y79) | -0.00544 |
| ERC1 (peptide sequence: AAGLQAEIGQVK, peptide start residue: 461) (UniProt Q8IUD2) | 0.382 |
| PHF6 (peptide sequence: AEFGDFDIK, peptide start residue: 258) (UniProt Q8IWS0) | -0.0815 |
| ARID3B (peptide sequence: LVQQAFQR, peptide start residue: 448) (UniProt Q8IVW6) | -0.121 |
| UniProt Q86V20 (peptide sequence: SCTSEDKVGQSEALSR, peptide start residue: 379) | 0.297 |
| UniProt Q8N0V3 (peptide sequence: HLLMSQQTLR, peptide start residue: 165) | -0.264 |
| COMMD7 (peptide sequence: VRTSMECFC, peptide start residue: 192) (UniProt Q86VX2) | -0.28 |
| VRK2 (peptide sequence: STVLQLGIR, peptide start residue: 141) (UniProt Q86Y07) | -0.583 |
| NAV2 (peptide sequence: QNLEETMSSLR, peptide start residue: 270) (UniProt Q8IVL1) | 0.0417 |
| GID4 (peptide sequence: TGRPCSQVPGSR, peptide start residue: 15) (UniProt Q8IVV7) | 0.208 |
| DDX60 (peptide sequence: KYEESLK, peptide start residue: 1071) (UniProt Q8IY21) | -0.0132 |
| SMC5 (peptide sequence: SIGPPEMHK, peptide start residue: 202) (UniProt Q8IY18) | -0.612 |
| NOSTRIN (peptide sequence: QVTSVLQQR, peptide start residue: 30) (UniProt Q8IVI9) | 0.0985 |
| PROSER1 (peptide sequence: KAVLTEYK, peptide start residue: 15) (UniProt Q86XN7) | 0.517 |
| CNTROB (peptide sequence: SGHPAPSSMR, peptide start residue: 887) (UniProt Q8N137) | -0.186 |
| XRN1 (peptide sequence: EILKIDGSNTVDHKNEIK, peptide start residue: 1361) (UniProt Q8IZH2) | 0.759 |
| UniProt Q86Z20 (peptide sequence: KPGGIYEIEFSHR, peptide start residue: 35) | -0.497 |

Rewritten tab-delimited: entries from further up.
Target	log2 fold change
DDX60 (peptide sequence: KYEESLK, peptide start residue: 1071) (UniProt Q8IY21)	-0.0132
SMC5 (peptide sequence: SIGPPEMHK, peptide start residue: 202) (UniProt Q8IY18)	-0.612

(cont.)

| Target | log2 fold change |
| --- | --- |
| ZNF410 (peptide sequence: LMLPDDTTNHSNSSK, peptide start residue: 53) (UniProt Q86VK4) | 0.369 |
| ZGRF1 (peptide sequence: SKAQILALLK, peptide start residue: 251) (UniProt Q86YA3) | -0.751 |
| ZFPM1 (peptide sequence: DCGIWYR, peptide start residue: 245) (UniProt Q8IX07) | 0.526 |
| UniProt Q8IYL2 (peptide sequence: EVGFTCGFHVDEDCLR, peptide start residue: 477) | 0.455 |
| DHX37 (peptide sequence: ADCHEALLAAWKK, peptide start residue: 1114) (UniProt Q8IY37) | 0.524 |
| GLCCI1 (peptide sequence: QPISAPLFSCPDKNK, peptide start residue: 436) (UniProt Q86VQ1) | 0.196 |
| UniProt Q8IW45 (peptide sequence: LHALVVGPGLGRDDALLR, peptide start residue: 145) | -0.249 |
| UniProt Q86XI8 (peptide sequence: GSQLEDQALR, peptide start residue: 579) | 0.0896 |
| NT5DC3 (peptide sequence: YICYAEQTR, peptide start residue: 274) (UniProt Q86UY8) | 0.116 |
| PDIK1L (peptide sequence: SQHPNVIHLEECILQK, peptide start residue: 62) (UniProt Q8N165) | -0.191 |
| TRAPPC5 (peptide sequence: VLGALLFVK, peptide start residue: 82) (UniProt Q8IUR0) | -0.0527 |
| FAM219A (peptide sequence: EGESVAMNYKPSPLQVK, peptide start residue: 36) (UniProt Q8IW50) | -0.403 |
| CAND1 (peptide sequence: RVALVTFNSAAHNKPSLIR, peptide start residue: 1024) (UniProt Q86VP6) | -0.532 |
| UniProt Q8IV42 (peptide sequence: YEVYQLAR, peptide start residue: 161) | -0.117 |
| COA5 (peptide sequence: YAFFECKR, peptide start residue: 52) (UniProt Q86WW8) | 0.272 |
| ANKLE2 (peptide sequence: DLLEPSPADQLGNGHR, peptide start residue: 773) (UniProt Q86XL3) | 0.303 |
| RASSF3 (peptide sequence: SGQQDVEK, peptide start residue: 34) (UniProt Q86WH2) | -0.432 |
| KSR1 (peptide sequence: QIAQEIIK, peptide start residue: 712) (UniProt Q8IVT5) | -0.131 |
